Reference: the supplement of paper PMC7661543
Differences between knockout arms are mostly noise.

Test system: MDA-MB-231
Assay: relative cell number vs DMSO control (72 h) (% of DMSO); higher = less growth inhibition (more cells)
Description: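 QMAP-Seq: a pool of 5 breast cancer cell lines (ZR-75-1, SKBR3, HCC-38, MDA-MB-231, BT-20), each carrying 12 doxycycline-inducible Cas9 sgRNA perturbations (11 knockouts plus non-targeting sgNT), was treated with compounds for 72 h at four 10-fold doses (10 nM-10 uM or 1 nM-1 uM range). Barcodes were amplified and sequenced, and cell number was interpolated from 293T spike-in standard curves. The result is expressed as % of the median of DMSO wells. Two biological replicates.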

C=C1C(=O)O[C@H]2[C@H]1CC/C(C)=C/CC[C@@]1(C)O[C@@H]21 [Parthenolide]
Conditions	relative cell number
sgRNA knockout: sgATF3, 10 nM	116
sgRNA knockout: sgATF3, 100 nM	95.1
sgRNA knockout: sgATF3, 1000 nM	117
sgRNA knockout: sgATF3, 10000 nM	97.7
sgRNA knockout: sgATF4, 10 nM	118
sgRNA knockout: sgATF4, 100 nM	85.2
sgRNA knockout: sgATF4, 1000 nM	91.4
sgRNA knockout: sgATF4, 10000 nM	104
sgRNA knockout: sgATF6, 10 nM	124
sgRNA knockout: sgATF6, 100 nM	95.6
sgRNA knockout: sgATF6, 1000 nM	92.3
sgRNA knockout: sgATF6, 10000 nM	131
sgRNA knockout: sgATG7, 10 nM	123
sgRNA knockout: sgATG7, 100 nM	109
sgRNA knockout: sgATG7, 1000 nM	93.1
sgRNA knockout: sgATG7, 10000 nM	103
sgRNA knockout: sgERN1, 10 nM	133
sgRNA knockout: sgERN1, 100 nM	86.9
sgRNA knockout: sgERN1, 1000 nM	116
sgRNA knockout: sgERN1, 10000 nM	108
sgRNA knockout: sgHSF1, 10 nM	104
sgRNA knockout: sgHSF1, 100 nM	126
sgRNA knockout: sgHSF1, 1000 nM	111
sgRNA knockout: sgHSF1, 10000 nM	99.6
sgRNA knockout: sgHSF2, 10 nM	127
sgRNA knockout: sgHSF2, 100 nM	104
sgRNA knockout: sgHSF2, 1000 nM	119
sgRNA knockout: sgHSF2, 10000 nM	81.2
sgRNA knockout: sgKEAP1, 10 nM	124
sgRNA knockout: sgKEAP1, 100 nM	147
sgRNA knockout: sgKEAP1, 1000 nM	101
sgRNA knockout: sgKEAP1, 10000 nM	116
sgRNA knockout: sgNFE2L2, 10 nM	106
sgRNA knockout: sgNFE2L2, 100 nM	102
sgRNA knockout: sgNFE2L2, 1000 nM	124
sgRNA knockout: sgNFE2L2, 10000 nM	81.2
sgRNA knockout: sgSLC35F2, 10 nM	106.2
sgRNA knockout: sgSLC35F2, 100 nM	99.1
sgRNA knockout: sgSLC35F2, 1000 nM	95.6
sgRNA knockout: sgSLC35F2, 10000 nM	110
sgRNA knockout: sgXBP1, 10 nM	101
sgRNA knockout: sgXBP1, 100 nM	105
sgRNA knockout: sgXBP1, 1000 nM	96.4
sgRNA knockout: sgXBP1, 10000 nM	83.9

C[C@@H](Nc1cc(F)cc(F)c1)c1cc(C(=O)N(C)C)cc2c(=O)cc(N3CCOCC3)oc12 [AZD8186]
Conditions	relative cell number
sgRNA knockout: sgATF3, 10 nM	104
sgRNA knockout: sgATF3, 100 nM	119
sgRNA knockout: sgATF3, 1000 nM	102
sgRNA knockout: sgATF3, 10000 nM	101
sgRNA knockout: sgATF4, 10 nM	123
sgRNA knockout: sgATF4, 100 nM	157
sgRNA knockout: sgATF4, 1000 nM	108
sgRNA knockout: sgATF4, 10000 nM	111
sgRNA knockout: sgATF6, 10 nM	88.3
sgRNA knockout: sgATF6, 100 nM	121
sgRNA knockout: sgATF6, 1000 nM	87
sgRNA knockout: sgATF6, 10000 nM	83
sgRNA knockout: sgATG7, 10 nM	110
sgRNA knockout: sgATG7, 100 nM	109
sgRNA knockout: sgATG7, 1000 nM	102
sgRNA knockout: sgATG7, 10000 nM	84.4
sgRNA knockout: sgERN1, 10 nM	114
sgRNA knockout: sgERN1, 100 nM	114
sgRNA knockout: sgERN1, 1000 nM	90.4
sgRNA knockout: sgERN1, 10000 nM	77.6
sgRNA knockout: sgHSF1, 10 nM	96.5
sgRNA knockout: sgHSF1, 100 nM	93.2
sgRNA knockout: sgHSF1, 1000 nM	104
sgRNA knockout: sgHSF1, 10000 nM	80.6
sgRNA knockout: sgHSF2, 10 nM	126
sgRNA knockout: sgHSF2, 100 nM	121
sgRNA knockout: sgHSF2, 1000 nM	103
sgRNA knockout: sgHSF2, 10000 nM	93.1
sgRNA knockout: sgKEAP1, 10 nM	97.9
sgRNA knockout: sgKEAP1, 100 nM	114
sgRNA knockout: sgKEAP1, 1000 nM	101
sgRNA knockout: sgKEAP1, 10000 nM	98.5
sgRNA knockout: sgNFE2L2, 10 nM	116
sgRNA knockout: sgNFE2L2, 100 nM	118
sgRNA knockout: sgNFE2L2, 1000 nM	103
sgRNA knockout: sgNFE2L2, 10000 nM	97
sgRNA knockout: sgSLC35F2, 10 nM	107
sgRNA knockout: sgSLC35F2, 100 nM	125
sgRNA knockout: sgSLC35F2, 1000 nM	93
sgRNA knockout: sgSLC35F2, 10000 nM	100
sgRNA knockout: sgXBP1, 10 nM	104
sgRNA knockout: sgXBP1, 100 nM	125
sgRNA knockout: sgXBP1, 1000 nM	89.5
sgRNA knockout: sgXBP1, 10000 nM	94.9

O=C(Cc1ccc(-c2ccc(OCCN3CCOCC3)cc2)cn1)NCc1ccccc1 [KX2391]
Conditions	relative cell number
sgRNA knockout: sgATF3, 10 nM	119
sgRNA knockout: sgATF3, 100 nM	40.7
sgRNA knockout: sgATF3, 1000 nM	19.99
sgRNA knockout: sgATF3, 10000 nM	19.5
sgRNA knockout: sgATF4, 10 nM	117
sgRNA knockout: sgATF4, 100 nM	37.3
sgRNA knockout: sgATF4, 1000 nM	19.8
sgRNA knockout: sgATF4, 10000 nM	28.5
sgRNA knockout: sgATF6, 10 nM	101
sgRNA knockout: sgATF6, 100 nM	41.5
sgRNA knockout: sgATF6, 1000 nM	25.4
sgRNA knockout: sgATF6, 10000 nM	24
sgRNA knockout: sgATG7, 10 nM	111
sgRNA knockout: sgATG7, 100 nM	32.4
sgRNA knockout: sgATG7, 1000 nM	24.8
sgRNA knockout: sgATG7, 10000 nM	22.2
sgRNA knockout: sgERN1, 10 nM	162
sgRNA knockout: sgERN1, 100 nM	26.2
sgRNA knockout: sgERN1, 1000 nM	19.4
sgRNA knockout: sgERN1, 10000 nM	22
sgRNA knockout: sgHSF1, 10 nM	138
sgRNA knockout: sgHSF1, 100 nM	32.3
sgRNA knockout: sgHSF1, 1000 nM	17.61
sgRNA knockout: sgHSF1, 10000 nM	20.3
sgRNA knockout: sgHSF2, 10 nM	136
sgRNA knockout: sgHSF2, 100 nM	36.3
sgRNA knockout: sgHSF2, 1000 nM	24.4
sgRNA knockout: sgHSF2, 10000 nM	23.5
sgRNA knockout: sgKEAP1, 10 nM	126
sgRNA knockout: sgKEAP1, 100 nM	27.2
sgRNA knockout: sgKEAP1, 1000 nM	22
sgRNA knockout: sgKEAP1, 10000 nM	12.64
sgRNA knockout: sgNFE2L2, 10 nM	116
sgRNA knockout: sgNFE2L2, 100 nM	32.4
sgRNA knockout: sgNFE2L2, 1000 nM	20.8
sgRNA knockout: sgNFE2L2, 10000 nM	20.6
sgRNA knockout: sgSLC35F2, 10 nM	90.5
sgRNA knockout: sgSLC35F2, 100 nM	35.1
sgRNA knockout: sgSLC35F2, 1000 nM	24.9
sgRNA knockout: sgSLC35F2, 10000 nM	23.7
sgRNA knockout: sgXBP1, 10 nM	117
sgRNA knockout: sgXBP1, 100 nM	32.7
sgRNA knockout: sgXBP1, 1000 nM	15.3
sgRNA knockout: sgXBP1, 10000 nM	21.9
